# According to paper PMC5788582:
# Results are given in words; binding and its absence hold for the method and conditions named. In cells and extracts the contact can be indirect. Some results given as binding are weak or reduced against the parent protein; the word gives no strength.
# Molecular target: Aurora B kinase (endogenous, 293T) (human (endogenous in 293T)) (UniProt Q96GD4)
# Assay: co-IP; 293T cell extracts expressing HA-PLK1 WT or HA-PLK1 AA; IP with anti-Aurora B kinase antibody
row,binding,Substance
1,binds,HA-PLK1 AA (transfected in 293T cells) (from UniProt P53350 1-603) (enzyme)
2,binds,HA-PLK1 WT (transfected in 293T cells) (from UniProt P53350 1-603) (enzyme)
